Measured values as given in patent US20210363563A1, “MEDIUM FOR THE SPECIFIC DETECTION OF RESISTANT MICROORGANISMS” (BIOMERIEUX, priority 2005, published 2021).
Some entries share one result that the patent states for a list of compounds.

Tested on: ESBL-positive enterobacterial strains
Assay type: cell-based, enterobacteria
Conditions: in the presence of cefotaxime

Row | SMILES | concentration required in order to inhibit the ESBL-positive strains
1 | C[C@]1(Cn2ccnn2)[C@H](C(=O)O)N2C(=O)C[C@H]2S1(=O)=O [Tazobactam, tazobactam] | greater than 2 mg/l
2 | CC1(C)[C@H](C(=O)O)N2C(=O)C[C@H]2S1(=O)=O [sulbactam] | greater than 2 mg/l
